{"source": "PubChem BioAssay AID504444", "about": "(National Center for Advancing Translational Sciences (NCATS), 2011)", "note": "The whole screen tested about 360,000 compounds, of which about 7,500 (2.1%) were called active. This list was built around the results that the source calls inconclusive (neither active nor inactive); the mix of calls is not that of the screen. The call rests on the fitted dose curve; in most records, active means well fitted inhibition curve with a large enough effect; inconclusive means small, poorly fitted or top-dose-only effect, or effect the other way; inactive means flat fitted curve, though single readings scatter. A potency beside an inconclusive call is a rough fit, not a confirmed value. On the % scale 0 is the no-effect control and ±100 the full control effect; potency means the concentration at half of the fitted maximal effect."}
{"assay": "Nrf2 qHTS screen for inhibitors; further: nearly all actives have a fitted effect of over 60% in size", "details": "A549 ARE-Fluc reporter, luciferase luminescence, 18-24 h; activity change, negative = inhibition: at 46 µM (top of the series)", "procedure,_shortened": "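In this cell-based qHTS, ARE-driven firefly luciferase in A549 cells reports Nrf2 activity; the luminescent signal after BugLite lysis is the measured value, with a prior CellTiter-Fluor read for cell health.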"}
{"smiles": "Cc1ccc(NC2=Nc3ccccc3CS2)cc1", "Potency": "inconclusive: 0.291 µM [activator, full curve, poor fit]"}
{"smiles": "COc1ccc(CCNC(=O)CCc2c(C)c3cc4c(C)c(C)oc4cc3oc2=O)cc1", "activity change, negative = inhibition": "inactive: 0.616%"}
{"smiles": "COc1ccc(NC(=O)CC(C)n2nc(C)cc2C)cc1Cl", "note": "(configuration not stated)", "activity change, negative = inhibition": "inactive: 22.9%"}
{"smiles": "CCOC(=O)c1c(NC(=O)/C=C/C(=O)O)sc(C)c1-c1ccc(C)c(C)c1", "activity change, negative = inhibition": "inactive: -14.7%"}
{"smiles": "CCOc1cc(CN2CCN(c3ccc(C(C)=O)cc3)CC2)ccc1OC", "activity change, negative = inhibition": "inactive: -21.6%"}
{"smiles": "COCCNC(=O)C(c1cccs1)N(Cc1cccs1)C(=O)Cn1nnc2ccccc21", "note": "(configuration not stated)", "activity change, negative = inhibition": "inactive: -6.64%"}
{"smiles": "C=CC[C@@H](CC(=O)N[C@H](CO)Cc1ccccc1)C(=O)N[C@@H](COC(=O)[C@@H](CC=C)Cc1ccc(F)cc1)Cc1ccccc1", "Potency": "inconclusive: 29.1 µM [falling, single point]"}
{"smiles": "O=C(CCNc1ccc(Cc2ccncc2)cc1)c1cccc([N+](=O)[O-])c1", "Potency": "active: 14.6 µM"}
{"smiles": "Cc1ccc(NC(=O)CCNS(=O)(=O)c2ccc3c(c2)oc(=O)n3C)cc1", "Potency": "inconclusive: 5.17 µM [activator, partial curve]"}
{"smiles": "O=C(Nc1ccc(SC(F)F)cc1)C12CCC(CC1)C2", "Potency": "inconclusive: 2.59 µM [activator, full curve]"}
{"smiles": "O=C(CC1C(=O)N(c2ccccc2)C(=S)N1c1ccccc1)c1ccc(Br)cc1", "note": "(configuration not stated)", "Potency": "inconclusive: 6.51 µM [activator, single point]"}
{"smiles": "CCc1ccc(NC(=O)C(=O)NCC2CCCN2S(=O)(=O)c2ccccc2)cc1", "note": "(configuration not stated)", "Potency": "inconclusive: 32.6 µM [falling, single point]"}
{"smiles": "COc1cc(/C=N/n2cnnc2)ccc1OCCSc1ccc(C)cc1", "Potency": "inconclusive: 2.91 µM [activator, full curve]"}
{"smiles": "COc1cccc(C2c3c(-c4ccccc4O)n[nH]c3C(=O)N2CCc2ccc(OC)c(OC)c2)c1", "note": "(configuration not stated)", "Potency": "inconclusive: 11.6 µM [falling, partial curve]"}
{"smiles": "S=c1[nH]cnc2scc(-c3ccc(Br)cc3)c12", "Potency": "inconclusive: 8.2 µM [falling, partial curve, poor fit]"}
{"smiles": "CCOC(=O)C(NS(=O)(=O)c1ccccc1)(C(F)(F)F)P(=O)(OCC(C)C)OCC(C)C", "note": "(configuration not stated)", "Potency": "inconclusive: 29.1 µM [falling, single point]"}
{"smiles": "CN(c1ccccc1)S(=O)(=O)c1cccc(C(=O)NCCc2c[nH]c3ccccc23)c1", "Potency": "inconclusive: 29.1 µM [falling, single point]"}
{"smiles": "CC(C)Cn1c(N)c(C(=O)COC(=O)c2c(O)c(Cl)cc(Cl)c2Cl)c(=O)n(C)c1=O", "Potency": "inconclusive: 32.6 µM [falling, single point]"}
{"smiles": "Cc1ccc2c(Cl)c(C(=O)NCc3cccnc3)sc2c1", "Potency": "inconclusive: 29.1 µM [falling, single point]"}
{"smiles": "COc1ccc(-n2c(=O)[nH]cc(C(=O)Nc3ccc(NC(C)=O)cc3)c2=O)cc1", "Potency": "inconclusive: 20.6 µM [falling, single point]"}
{"smiles": "O=C(Nc1nnc(S(=O)(=O)N2CCc3ccccc32)s1)c1ccccc1", "Potency": "inconclusive: 29.1 µM [activator, single point]"}
{"smiles": "CC1CCCCN1S(=O)(=O)c1ccc(S(=O)(=O)N(CC(=O)Nc2ccccc2)Cc2cccs2)cc1", "note": "(configuration not stated)", "activity change, negative = inhibition": "inactive: -9.35%"}
{"smiles": "N#Cc1c(C(F)(F)F)cc(-c2ccccc2)[nH]c1=O", "activity change, negative = inhibition": "inactive: -14.6%"}
{"smiles": "CCc1ccccc1Nc1cc(C(=O)NC2CCC(C)CC2)c2ccccc2n1", "note": "(configuration not stated)", "Potency": "inconclusive: 7.31 µM [activator, full curve]"}
{"smiles": "C=CC[C@H](CC(=O)N(CCO)Cc1ccccc1)C(=O)N[C@H](COC(=O)[C@H](CC=C)CC(=O)OC(C)(C)C)Cc1ccccc1", "Potency": "inconclusive: 20.6 µM [falling, single point]"}
{"smiles": "Brc1ccccc1C1N=C(c2ccccc2)NO1", "note": "(configuration not stated)", "Potency": "inconclusive: 7.31 µM [activator, partial curve]"}
{"smiles": "CCCOC(=O)C1=C(C)NC2=C(C(=O)C(C(=O)OC)C(C)C2)C1c1ccc(N(C)C)cc1", "note": "(configuration not stated)", "Potency": "inconclusive: 7.31 µM [falling, partial curve]"}
{"smiles": "Cc1ccc(NC(=O)c2nnn(-c3ccc4c(c3)OCCO4)c2N)cc1", "activity change, negative = inhibition": "inactive: -3.94%"}
{"smiles": "CCSc1ncc(Cl)c(C(=O)Nc2ccc(S(N)(=O)=O)cc2)n1", "activity change, negative = inhibition": "inactive: -15.5%"}
{"smiles": "Cc1nc(-c2c(-c3ccc(O)cc3O)noc2C(F)(F)F)cs1", "Potency": "inconclusive: 29.1 µM [falling, single point]"}
{"smiles": "CC(c1ccccc1)n1c(SCC(=O)N2CC(=O)Nc3ccccc32)nc2ccccc2c1=O", "note": "(configuration not stated)", "Potency": "active: 16.4 µM"}
{"smiles": "CSc1ncccc1C(=O)Nc1nc2ccc(F)cc2s1", "Potency": "inconclusive: 8.2 µM [activator, partial curve]"}
{"smiles": "COc1ccc(C(=O)N2c3ccccc3C(=O)OC2c2ccc3c(c2)OCO3)cc1", "note": "(configuration not stated)", "Potency": "inconclusive: 3.66 µM [activator, full curve]"}
{"smiles": "Cn1c(=O)c2cc(S(=O)(=O)NCCC(=O)NC3CCCCCCC3)ccc2n(C)c1=O", "Potency": "inconclusive: 14.6 µM [falling, partial curve, poor fit]"}
{"smiles": "COc1cc(C(=O)N/N=C\\c2ccccc2)c([N+](=O)[O-])c(OC)c1OC", "Potency": "inconclusive: 29.1 µM [falling, single point]"}
{"smiles": "COc1cc(Cl)c(C)cc1NC(=O)c1ccc(NS(=O)(=O)c2ccc(F)c(F)c2)cc1", "Potency": "inconclusive: 0.411 µM [activator, full curve]"}
{"smiles": "CC(C)(C)C(=O)Nc1cc2nn(-c3ccccc3)nc2cc1Cl", "Potency": "inconclusive: 16.4 µM [falling, single point]"}
{"smiles": "Cc1nn(-c2ccccc2)c(N2CCCC2)c1/C=N/NC(=O)c1cccc(S(=O)(=O)Nc2ccc(Cl)cc2)c1", "Potency": "active: 5.8 µM"}
{"smiles": "Cc1ccccc1NC(=O)CSc1nc(COc2ccccc2)nc2ccccc12", "Potency": "inconclusive: 25.9 µM [falling, single point]"}
{"smiles": "O=C1c2ccccc2C(=O)N1CCCCN(C(=O)c1cc2ccccc2oc1=O)c1ccc(Cl)cc1", "activity change, negative = inhibition": "inactive: 3.82%"}
{"smiles": "CCOC(=O)C(=O)Nc1c(C(=O)Nc2cccc(F)c2)oc2ccccc12", "activity change, negative = inhibition": "inactive: 13%"}
{"smiles": "CCOC(=O)c1ccc(NS(=O)(=O)c2cc(Br)cc3c2N(C(C)=O)C(C)C3)cc1", "note": "(configuration not stated)", "Potency": "inconclusive: 6.51 µM [falling, single point]"}
